doi:10.1101/089763

How the values were obtained:
[1] = molecular target: T1, HRDE-1 (C. elegans (endogenous in whole animals)) (UniProt Q09249); assay: co-IP
T1 sequence: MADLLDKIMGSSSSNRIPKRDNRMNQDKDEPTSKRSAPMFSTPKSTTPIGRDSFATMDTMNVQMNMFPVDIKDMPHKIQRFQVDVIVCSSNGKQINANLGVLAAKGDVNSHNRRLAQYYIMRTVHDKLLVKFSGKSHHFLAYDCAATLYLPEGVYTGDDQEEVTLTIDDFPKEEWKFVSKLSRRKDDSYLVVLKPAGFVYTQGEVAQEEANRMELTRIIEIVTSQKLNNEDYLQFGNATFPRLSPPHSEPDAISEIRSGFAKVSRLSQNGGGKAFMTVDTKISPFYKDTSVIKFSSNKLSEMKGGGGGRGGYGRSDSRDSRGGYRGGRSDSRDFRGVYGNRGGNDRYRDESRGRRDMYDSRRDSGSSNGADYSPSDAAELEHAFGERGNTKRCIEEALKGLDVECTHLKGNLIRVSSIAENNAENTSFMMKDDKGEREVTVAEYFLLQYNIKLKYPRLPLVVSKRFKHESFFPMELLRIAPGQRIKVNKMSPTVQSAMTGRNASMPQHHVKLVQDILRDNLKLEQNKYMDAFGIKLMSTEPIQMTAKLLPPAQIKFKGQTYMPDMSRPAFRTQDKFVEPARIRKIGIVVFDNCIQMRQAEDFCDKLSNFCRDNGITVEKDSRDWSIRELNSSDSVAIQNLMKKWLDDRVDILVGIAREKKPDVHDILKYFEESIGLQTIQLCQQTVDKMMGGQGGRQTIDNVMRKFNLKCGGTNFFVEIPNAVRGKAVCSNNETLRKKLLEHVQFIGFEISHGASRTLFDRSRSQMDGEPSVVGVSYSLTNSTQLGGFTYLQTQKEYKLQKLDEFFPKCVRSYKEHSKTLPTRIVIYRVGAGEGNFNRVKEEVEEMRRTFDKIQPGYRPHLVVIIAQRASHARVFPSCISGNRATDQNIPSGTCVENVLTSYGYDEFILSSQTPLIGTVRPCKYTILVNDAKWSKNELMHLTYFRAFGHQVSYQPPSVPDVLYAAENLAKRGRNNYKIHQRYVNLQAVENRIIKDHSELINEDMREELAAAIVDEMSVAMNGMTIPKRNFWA

[2] = molecular target: T2, Flag-tagged HRDE-1 (C. elegans) (UniProt Q09249); assay: co-IP
T2 sequence: T1 sequence

Ollas-EMB-4 (C. elegans (endogenous in whole animals))
binding [1]: binds

Aquarius/EMB-4 (C. elegans (endogenous in whole animals))
binding [2]: binds

Results are given in words; binding and its absence hold for the method and conditions named. In cells and extracts the contact can be indirect. A result given as binding can be weak or reduced; the word gives no strength. For some assays here: Sequences can lack the tags named with a protein.
